# Results published in the supplement of paper PMC10735217.
# Where a name gives a salt, the structure may show the parent alone. The list shows a part of the results. Repeats in this data set agree poorly, so a single value says little.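 In a drug-repurposing library screen, luminescence reads luciferase driven by eight TEAD-binding elements, stably integrated into human kidney-derived cells. Compounds scoring over five robust Z scores above the plate mean are called hits.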
# Test system: HEK293A TEAD-LUC reporter
# Assay: TEAD-luciferase reporter activity (YAP activation), robust Z score vs plate; higher = stronger YAP/TEAD activation
# Conditions: 24 h
Compound,TEAD-luciferase reporter activity (compound concentration: 200 nM),TEAD-luciferase reporter activity (compound concentration: 2 uM),TEAD-luciferase reporter activity (compound concentration: 10 uM)
Cc1ccc(N2c3cccc(C(=O)Nc4ccc(OCC(F)(F)F)nc4)c3OC[C@@H]2CO)nc1,inactive: -1.67,inactive: -0.585,inactive: -1.74
COc1ccccc1N1CCN(CCCCNC(=O)c2ccc3ccccc3c2)CC1,inactive: -1.1,inactive: 0.91,inactive: -0.447
COc1ccc2c(c1)c(-c1ccccc1)nc(=O)n2CC1CC1 [Ciproquazone],inactive: -0.959,inactive: 0.343,inactive: -1.48
Clc1ccc(C(c2ccccc2)N2CCN(C/C=C/c3ccccc3)CC2)cc1 (configuration not stated),inactive: -0.981,inactive: -1.67,inactive: 0.174
Nc1ncc2ncn(COCCO)c2n1 [Desciclovir],inactive: 1.93,inactive: 0.109,inactive: 1.85
CCn1cc(C(=O)O)c(=O)c2ccc(Cl)cc21,inactive: 1.22,inactive: -1.81,inactive: -0.577
O=C1c2cccc3cccc(c23)C(=O)N1CCNCCN1C(=O)c2cccc3cccc(c23)C1=O,inactive: -0.911,inactive: -1.17,inactive: 0.658
Cn1c(=O)c2c(ncn2CC2OCCO2)n(C)c1=O [doxofylline],inactive: -1.31,inactive: -0.474,inactive: 0.949
CN(C)CCC1(C)OCCC2=C1Cc1ccccc12 (configuration not stated),inactive: 0.303,inactive: 2.53,inactive: 2.78
Cc1ccc(-n2c(-c3cnc(N4CCOCC4)nc3)nc3ccncc32)cc1,inactive: -1.85,inactive: -0.388,inactive: -1.55
O=C(O)COCCN1CCN(C(c2ccccc2)c2ccc(Cl)cc2)CC1 (configuration not stated),inactive: 1.24,–,inactive: -2.12
O=C(O)COCCN1CCN(C(c2ccccc2)c2ccc(Cl)cc2)CC1 (configuration not stated) [cetirizine dihydrochloride],–,inactive: 0.0694,–
CCN1CCCCC12Cc1ccccc1CN(C(=O)C1CCN(C)CC1)C2 (configuration not stated),inactive: 4.25,–,inactive: 4.64
CC(=O)OCC(=O)C1(O)C(C)CC2C3CCC4=CC(=O)C=CC4(C)C3(F)C(O)CC21C (configuration not stated) [dexamethasone acetate],inactive: -0.219,inactive: -0.891,inactive: 1.05
CCNC(=O)[C@@H]1CCCN1C(=O)[C@H](CCCNC(=N)N)NC(=O)[C@H](CC(C)C)NC(=O)[C@@H](Cc1cn(Cc2ccccc2)cn1)NC(=O)[C@H](Cc1ccc(O)cc1)NC(=O)[C@H](CO)NC(=O)[C@H](Cc1c[nH]c2ccccc12)NC(=O)[C@H](Cc1cnc[nH]1)NC(=O)[C@@H]1CCC(=O)N1 [Histrelin],inactive: -0.887,inactive: -0.919,inactive: -1.91
CC(C)C[C@H](NC(=O)[C@@H](Cc1c[nH]c2ccccc12)NC(=O)[C@H](Cc1ccc(O)cc1)NC(=O)[C@H](CO)NC(=O)[C@H](Cc1c[nH]c2ccccc12)NC(=O)[C@H](Cc1c[nH]cn1)NC(=O)[C@@H]1CCC(=O)N1)C(=O)N[C@@H](CCCNC(=N)N)C(=O)N1CCC[C@H]1C(=O)NCC(N)=O,inactive: 0.113,inactive: 0.236,inactive: 1.38
CC(C)OC(=O)N1CCC(Oc2ncnc3c2cnn3-c2ccc(S(C)(=O)=O)cc2F)CC1,inactive: 1.04,inactive: -0.338,inactive: 0.806
Cc1ccc(C(=O)NS(=O)(=O)c2ccc(N)cc2)cc1C,inactive: 0.215,inactive: -1.28,inactive: 1.41
CCNC(=O)[C@@H]1CCCN1C(=O)[C@H](CCCNC(=N)N)NC(=O)[C@H](CC(C)C)NC(=O)[C@@H](Cc1c[nH]c2ccccc12)NC(=O)[C@H](Cc1ccc(O)cc1)NC(=O)[C@H](CO)NC(=O)[C@H](Cc1c[nH]c2ccccc12)NC(=O)[C@H](Cc1c[nH]cn1)NC(=O)[C@@H]1CCC(=O)N1 [Deslorelin],inactive: 0.142,inactive: -0.258,inactive: -1.97
CC(C)[C@@H]1NC(=O)[C@H](CCCCN)NC(=O)[C@@H](Cc2c[nH]c3ccccc23)NC(=O)[C@H](Cc2ccc(O)cc2)NC(=O)[C@@H](NC(=O)[C@H](N)Cc2ccccc2)CSSC[C@@H](C(=O)N[C@@H](Cc2c[nH]c3ccccc23)C(N)=O)NC1=O [Vapreotide acetate],inactive: -1.16,inactive: -1.1,inactive: -1.1
c1ccc2c(c1)CSSC2,inactive: -0.75,inactive: -0.35,inactive: 1.21
COc1ccc(-c2cc(=O)c3c(O)cc(OC4OC(COC5OC(C)C(O)C(O)C5O)C(O)C(O)C4O)cc3o2)cc1O (configuration not stated) [diosmin],inactive: -1.15,inactive: 0.214,inactive: -2.01
Cn1cc[nH]c1=S [Methimazole],inactive: -0.431,inactive: -1.31,inactive: 0.719
CC[C@H](C)[C@H](N)C(=O)N[C@H]1CSSC[C@@H](C(=O)N[C@H](C(N)=O)[C@@H](C)O)NC(=O)[C@H](CCCNC(=N)N)NC(=O)[C@H](Cc2c[nH]cn2)NC(=O)[C@H](Cc2c[nH]cn2)NC(=O)CNC(=O)[C@H](Cc2c[nH]c3ccccc23)NC(=O)[C@H](CC(=O)O)NC(=O)[C@H](CCC(N)=O)NC(=O)[C@H](C(C)C)NC(=O)[C@H](C(C)C)NC1=O,inactive: -0.536,inactive: -0.539,inactive: -1.29

Compound,TEAD-luciferase reporter activity (compound concentration: 200 nM),TEAD-luciferase reporter activity (compound concentration: 2 uM),TEAD-luciferase reporter activity (compound concentration: 10 uM)
CN(C)c1nc(Cc2ccc(NC(=O)c3ccc(C(F)(F)F)cc3)cc2)nc(N(C)C)c1CC(=O)O,inactive: -0.872,inactive: -1.2,inactive: -0.44
CC(=O)CC/C=C(\C)CC/C=C(\C)CC/C=C(\C)CCC=C(C)C [tepre],inactive: -1.59,inactive: 2.31,inactive: 1.89
CO/N=C(\C(=O)N[C@@H]1C(=O)N2C(C(=O)[O-])=C(C[n+]3cccc4c3CCC4)CS[C@H]12)c1csc(N)n1 [cefpirome],–,inactive: -1.01,–
CO/N=C(\C(=O)N[C@@H]1C(=O)N2C(C(=O)[O-])=C(C[n+]3cccc4c3CCC4)CS[C@H]12)c1csc(N)n1 [Cefpirome sulfate],inactive: 0.492,–,inactive: 1.24
Cc1nc2ccc(CN(C)c3ccc(C(=O)N[C@@H](CCC(=O)O)C(=O)O)s3)cc2c(=O)[nH]1 [Raltitrexed (Tomudex)],inactive: -1.37,–,inactive: -0.355
Cc1nc2ccc(CN(C)c3ccc(C(=O)N[C@@H](CCC(=O)O)C(=O)O)s3)cc2c(=O)[nH]1 [Raltitrexed],–,inactive: 0.381,–
Cc1cc(C(=O)N2CCCCc3ccccc32)ccc1CNC(=O)NCC(=O)N(C)C,inactive: -0.426,inactive: -0.278,inactive: -1.08
O=C(O)c1ccc2c(c1)CCC(Cn1ccnc1)C2 (configuration not stated) [Nafagrel hydrochloride],inactive: -0.949,inactive: -0.323,inactive: -1.56
O=C(c1c[nH]c2ncccc12)N1CCN(Cc2ccccc2)CC1,inactive: -0.805,–,inactive: 1.71
N#Cc1ccc(S(=O)(=O)Nc2cccc(C(c3c(O)c4c(oc3=O)CCCCCC4)C3CC3)c2)cc1 (configuration not stated),inactive: 0.306,inactive: 0.548,active: 9.35
O=C1Nc2ccccc2C1(c1ccc(O)cc1)c1ccc(O)cc1 [Oxyphenisatine],inactive: 2.07,inactive: -2.47,inactive: 2.22
Cn1ccc2cc(-c3nc4ccc(F)nc4o3)cnc21,inactive: 1.9,inactive: -0.135,inactive: 3.82
COc1cccc(C2CC2CNC(C)=O)c1 (configuration not stated),inactive: -0.978,inactive: 3.81,inactive: 4.42
Cc1cc(-n2ncc(=O)[nH]c2=O)cc(C)c1Oc1ccc(O)c(Cc2ccc(F)cc2)c1,inactive: -0.475,inactive: -0.724,inactive: 0.286
CCCCOc1cc(N)c(Cl)cc1C(=O)NC1CCN(CC2OCCO2)CC1 [dobupride],inactive: 4.88,inactive: -1.03,inactive: -0.42
C[C@H](O)C(=O)Nc1c(I)c(C(=O)NC(CO)CO)c(I)c(C(=O)NC(CO)CO)c1I [iopamidol],inactive: 0.325,inactive: -0.0405,inactive: 3.54
CC(=O)NCCCC(=O)N1CCN(c2cccc(C=O)c2)C(=O)C1,inactive: -1.99,–,inactive: 0.592
Cc1cc2c(cc1CC(=O)c1sccc1S(=O)(=O)Nc1onc(C)c1Cl)OCO2 [Sitaxentan sodium],inactive: -3.38,inactive: -0.0238,inactive: 4.64
CCCCC[C@H](O)/C=C/C1[C@H]2C/C(=C\CCCC(=O)O)O[C@H]2C[C@@H]1O (some centres not stated) [epoprostenol],inactive: -0.6,inactive: -0.158,active: 7.68
NC(=O)NCCN1CCN(c2cccc(C(F)(F)F)c2)CC1 [fluprazine],inactive: 1.24,inactive: -1.03,inactive: 1.09
C=CC(=O)N1CC[C@@H](Oc2nc(Nc3ccc(N4CCC(N5CCN(C)CC5)CC4)cc3)c(C(N)=O)nc2CC)C1,inactive: 2.65,inactive: -1.05,inactive: 1.22
O=C(NCN1CCOCC1)c1cnccn1,inactive: -0.691,inactive: -1.01,inactive: -0.348
CCO[C@H](CN)Cc1ccc(OCc2nc(-c3ccccc3)oc2C)cc1,inactive: -0.213,inactive: -0.361,inactive: 0.876
CC(C)(/C=N/OCC(=O)O)Cc1c(SC(C)(C)C)c2cc(OCc3ccc4ccccc4n3)ccc2n1Cc1ccc(Cl)cc1,inactive: -1.07,inactive: -1.74,active: 6.75

# A second format for part of the listing above.
Compound	TEAD-luciferase reporter activity (compound concentration: 200 nM)	TEAD-luciferase reporter activity (compound concentration: 2 uM)	TEAD-luciferase reporter activity (compound concentration: 10 uM)
Cc1nc2ccc(CN(C)c3ccc(C(=O)N[C@@H](CCC(=O)O)C(=O)O)s3)cc2c(=O)[nH]1 [Raltitrexed]	–	inactive: 0.381	–
Cc1cc(C(=O)N2CCCCc3ccccc32)ccc1CNC(=O)NCC(=O)N(C)C	inactive: -0.426	inactive: -0.278	inactive: -1.08
